This assay addresses A3C1C2 subunit of factor VIII (human) (UniProt P00451). The assay can be described thus: fluorescence titration of acrylodan-labeled A1 with A3C1C2.

Chains of the proteins cited; added tags and fusions are not shown. Lines headed by an entry give the natural chain unless they say otherwise; changes in a name come on top.
UniProt P00451: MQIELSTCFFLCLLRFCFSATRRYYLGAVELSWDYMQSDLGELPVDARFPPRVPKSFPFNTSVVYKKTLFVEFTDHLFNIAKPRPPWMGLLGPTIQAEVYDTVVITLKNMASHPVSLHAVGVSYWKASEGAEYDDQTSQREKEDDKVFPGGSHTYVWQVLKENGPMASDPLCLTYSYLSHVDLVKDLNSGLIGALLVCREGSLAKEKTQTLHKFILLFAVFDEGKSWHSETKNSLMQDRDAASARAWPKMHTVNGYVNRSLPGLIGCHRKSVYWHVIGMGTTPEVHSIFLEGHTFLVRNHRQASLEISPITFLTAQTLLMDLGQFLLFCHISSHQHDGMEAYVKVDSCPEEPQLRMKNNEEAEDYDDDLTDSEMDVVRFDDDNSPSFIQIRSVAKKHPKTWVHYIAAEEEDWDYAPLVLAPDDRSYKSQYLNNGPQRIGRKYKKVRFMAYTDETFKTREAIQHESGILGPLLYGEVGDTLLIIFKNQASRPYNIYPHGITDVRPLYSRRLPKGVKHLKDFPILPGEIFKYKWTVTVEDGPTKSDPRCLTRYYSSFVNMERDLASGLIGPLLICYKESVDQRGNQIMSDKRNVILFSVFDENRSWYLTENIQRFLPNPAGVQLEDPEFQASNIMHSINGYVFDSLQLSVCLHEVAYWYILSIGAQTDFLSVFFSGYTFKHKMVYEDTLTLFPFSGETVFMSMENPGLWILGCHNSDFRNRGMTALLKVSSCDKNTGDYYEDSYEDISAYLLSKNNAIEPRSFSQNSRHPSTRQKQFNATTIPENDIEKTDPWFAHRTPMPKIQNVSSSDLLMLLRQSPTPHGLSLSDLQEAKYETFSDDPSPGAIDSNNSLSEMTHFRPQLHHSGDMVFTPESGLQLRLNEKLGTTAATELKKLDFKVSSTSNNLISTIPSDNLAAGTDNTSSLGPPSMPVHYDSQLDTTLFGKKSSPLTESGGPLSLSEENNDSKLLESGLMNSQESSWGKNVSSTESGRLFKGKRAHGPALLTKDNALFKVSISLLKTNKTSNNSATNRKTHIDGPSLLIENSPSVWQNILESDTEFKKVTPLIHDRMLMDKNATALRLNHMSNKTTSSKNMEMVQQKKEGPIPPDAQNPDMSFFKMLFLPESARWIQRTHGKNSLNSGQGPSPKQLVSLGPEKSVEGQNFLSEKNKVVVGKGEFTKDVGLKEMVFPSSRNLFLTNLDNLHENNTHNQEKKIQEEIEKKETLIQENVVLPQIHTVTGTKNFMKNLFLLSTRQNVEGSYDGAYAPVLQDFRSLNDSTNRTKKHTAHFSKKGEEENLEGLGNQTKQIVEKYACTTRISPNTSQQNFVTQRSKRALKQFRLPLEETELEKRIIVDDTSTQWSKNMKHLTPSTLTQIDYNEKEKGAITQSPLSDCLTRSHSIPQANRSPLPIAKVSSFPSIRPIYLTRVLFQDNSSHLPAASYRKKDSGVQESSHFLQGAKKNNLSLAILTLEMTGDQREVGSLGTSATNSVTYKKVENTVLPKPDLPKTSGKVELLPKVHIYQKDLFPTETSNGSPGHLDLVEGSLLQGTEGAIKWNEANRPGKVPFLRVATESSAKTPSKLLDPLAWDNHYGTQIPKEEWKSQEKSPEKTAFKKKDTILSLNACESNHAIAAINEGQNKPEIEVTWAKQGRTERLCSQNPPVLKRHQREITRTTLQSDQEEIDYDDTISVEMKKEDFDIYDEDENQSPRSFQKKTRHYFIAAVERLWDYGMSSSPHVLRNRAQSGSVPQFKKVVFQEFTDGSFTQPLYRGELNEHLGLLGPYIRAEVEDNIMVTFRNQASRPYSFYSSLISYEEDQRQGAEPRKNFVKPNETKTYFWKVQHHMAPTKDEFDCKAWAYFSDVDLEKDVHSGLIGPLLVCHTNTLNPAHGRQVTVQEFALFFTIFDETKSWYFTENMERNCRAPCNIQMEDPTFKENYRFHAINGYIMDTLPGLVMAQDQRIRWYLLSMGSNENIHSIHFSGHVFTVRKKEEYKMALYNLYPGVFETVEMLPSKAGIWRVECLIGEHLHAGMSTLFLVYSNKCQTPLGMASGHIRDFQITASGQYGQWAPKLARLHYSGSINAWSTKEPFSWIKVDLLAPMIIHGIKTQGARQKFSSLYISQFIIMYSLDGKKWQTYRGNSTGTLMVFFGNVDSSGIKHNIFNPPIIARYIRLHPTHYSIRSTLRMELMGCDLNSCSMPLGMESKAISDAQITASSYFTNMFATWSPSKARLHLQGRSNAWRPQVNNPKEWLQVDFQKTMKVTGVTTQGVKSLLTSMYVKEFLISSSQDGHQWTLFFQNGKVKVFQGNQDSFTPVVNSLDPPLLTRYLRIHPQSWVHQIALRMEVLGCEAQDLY

These are yes or no findings as the source states them, for the method shown. Some binding calls cover weakened binding; strength is not graded here.

As for “acrylodan-labeled A1 subunit from Ala108Ile factor VIII (from UniProt P00451 20-391)”, the binding entry is “binds”.

Take “acrylodan-labeled A1 subunit from WT factor VIII (from UniProt P00451 20-391)”: the binding entry is listed as “binds”.

These data come from patent US20120065136A1.
